# Measured values taken from the supplement of paper PMC7666118.
# Chains of the proteins cited; added tags and fusions are not shown. Lines headed by an entry give the natural chain unless they say otherwise; changes in a name come on top.
# UniProt P33991: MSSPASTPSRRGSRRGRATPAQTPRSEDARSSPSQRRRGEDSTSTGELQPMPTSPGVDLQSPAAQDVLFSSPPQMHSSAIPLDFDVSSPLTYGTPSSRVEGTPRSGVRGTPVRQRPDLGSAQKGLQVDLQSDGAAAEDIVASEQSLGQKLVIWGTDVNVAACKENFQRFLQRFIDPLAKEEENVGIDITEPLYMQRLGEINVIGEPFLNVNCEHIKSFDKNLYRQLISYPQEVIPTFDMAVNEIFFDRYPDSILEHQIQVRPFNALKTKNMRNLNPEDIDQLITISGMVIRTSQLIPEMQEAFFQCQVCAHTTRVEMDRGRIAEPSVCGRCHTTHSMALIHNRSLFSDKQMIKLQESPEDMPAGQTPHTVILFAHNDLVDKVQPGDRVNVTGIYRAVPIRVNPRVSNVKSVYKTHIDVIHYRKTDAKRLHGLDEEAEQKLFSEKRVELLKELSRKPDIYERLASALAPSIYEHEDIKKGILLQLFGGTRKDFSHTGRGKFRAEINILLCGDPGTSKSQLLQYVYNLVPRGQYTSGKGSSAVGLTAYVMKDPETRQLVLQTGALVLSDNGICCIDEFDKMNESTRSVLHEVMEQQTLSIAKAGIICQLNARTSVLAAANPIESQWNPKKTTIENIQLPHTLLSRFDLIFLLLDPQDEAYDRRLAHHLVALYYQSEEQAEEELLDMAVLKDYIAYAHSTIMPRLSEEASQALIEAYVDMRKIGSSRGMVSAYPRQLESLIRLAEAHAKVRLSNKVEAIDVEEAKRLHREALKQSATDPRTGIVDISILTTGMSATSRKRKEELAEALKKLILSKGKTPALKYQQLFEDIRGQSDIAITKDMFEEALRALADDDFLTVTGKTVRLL
# UniProt Q9NX47: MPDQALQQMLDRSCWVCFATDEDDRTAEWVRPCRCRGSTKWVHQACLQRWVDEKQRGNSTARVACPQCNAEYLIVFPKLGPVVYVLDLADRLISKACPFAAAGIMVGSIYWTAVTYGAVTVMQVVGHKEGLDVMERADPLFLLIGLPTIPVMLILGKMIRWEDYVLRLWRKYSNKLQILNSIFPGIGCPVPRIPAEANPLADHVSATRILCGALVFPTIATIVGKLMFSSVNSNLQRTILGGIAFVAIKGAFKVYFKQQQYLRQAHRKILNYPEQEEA
# UniProt P56192: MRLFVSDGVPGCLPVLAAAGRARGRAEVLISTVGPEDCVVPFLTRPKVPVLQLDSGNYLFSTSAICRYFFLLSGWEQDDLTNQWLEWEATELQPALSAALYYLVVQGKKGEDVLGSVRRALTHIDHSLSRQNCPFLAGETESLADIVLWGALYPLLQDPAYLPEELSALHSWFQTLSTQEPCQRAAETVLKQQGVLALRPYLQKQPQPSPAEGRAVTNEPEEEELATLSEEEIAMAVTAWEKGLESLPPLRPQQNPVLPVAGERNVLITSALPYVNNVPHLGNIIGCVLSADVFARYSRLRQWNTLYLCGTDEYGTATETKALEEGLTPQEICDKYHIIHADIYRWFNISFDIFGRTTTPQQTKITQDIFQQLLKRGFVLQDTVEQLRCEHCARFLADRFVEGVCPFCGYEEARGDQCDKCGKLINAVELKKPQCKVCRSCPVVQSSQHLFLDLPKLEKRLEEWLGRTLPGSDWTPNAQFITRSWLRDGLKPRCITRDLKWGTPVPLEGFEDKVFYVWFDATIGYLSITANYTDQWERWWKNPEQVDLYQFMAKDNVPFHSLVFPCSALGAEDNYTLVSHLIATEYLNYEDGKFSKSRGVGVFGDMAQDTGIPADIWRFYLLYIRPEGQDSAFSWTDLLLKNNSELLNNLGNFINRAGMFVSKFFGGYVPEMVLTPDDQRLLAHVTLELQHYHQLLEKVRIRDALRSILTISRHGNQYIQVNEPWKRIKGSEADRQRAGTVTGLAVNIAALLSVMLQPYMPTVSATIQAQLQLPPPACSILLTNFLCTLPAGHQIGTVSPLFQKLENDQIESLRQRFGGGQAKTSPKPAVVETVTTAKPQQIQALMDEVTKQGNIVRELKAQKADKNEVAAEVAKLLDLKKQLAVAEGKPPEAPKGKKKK
# UniProt Q8IVL6: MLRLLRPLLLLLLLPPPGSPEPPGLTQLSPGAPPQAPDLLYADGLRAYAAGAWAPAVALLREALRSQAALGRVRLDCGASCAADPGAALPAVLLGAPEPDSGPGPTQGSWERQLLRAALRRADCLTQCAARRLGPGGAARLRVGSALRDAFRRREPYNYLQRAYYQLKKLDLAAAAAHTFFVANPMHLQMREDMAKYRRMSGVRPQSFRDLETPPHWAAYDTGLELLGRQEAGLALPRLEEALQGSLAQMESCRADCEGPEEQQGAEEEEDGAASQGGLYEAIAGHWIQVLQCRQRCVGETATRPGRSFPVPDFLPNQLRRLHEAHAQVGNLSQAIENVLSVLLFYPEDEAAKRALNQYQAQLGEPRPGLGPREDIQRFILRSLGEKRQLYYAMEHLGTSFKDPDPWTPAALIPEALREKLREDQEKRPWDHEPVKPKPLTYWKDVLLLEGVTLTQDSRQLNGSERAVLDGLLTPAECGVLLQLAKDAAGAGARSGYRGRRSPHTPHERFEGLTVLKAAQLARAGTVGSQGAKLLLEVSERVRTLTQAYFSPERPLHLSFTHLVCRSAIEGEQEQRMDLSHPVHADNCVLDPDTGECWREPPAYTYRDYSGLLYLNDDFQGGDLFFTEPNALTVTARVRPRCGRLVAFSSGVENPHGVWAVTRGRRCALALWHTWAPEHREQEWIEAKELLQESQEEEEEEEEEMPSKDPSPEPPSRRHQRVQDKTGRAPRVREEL
# UniProt Q9NS86: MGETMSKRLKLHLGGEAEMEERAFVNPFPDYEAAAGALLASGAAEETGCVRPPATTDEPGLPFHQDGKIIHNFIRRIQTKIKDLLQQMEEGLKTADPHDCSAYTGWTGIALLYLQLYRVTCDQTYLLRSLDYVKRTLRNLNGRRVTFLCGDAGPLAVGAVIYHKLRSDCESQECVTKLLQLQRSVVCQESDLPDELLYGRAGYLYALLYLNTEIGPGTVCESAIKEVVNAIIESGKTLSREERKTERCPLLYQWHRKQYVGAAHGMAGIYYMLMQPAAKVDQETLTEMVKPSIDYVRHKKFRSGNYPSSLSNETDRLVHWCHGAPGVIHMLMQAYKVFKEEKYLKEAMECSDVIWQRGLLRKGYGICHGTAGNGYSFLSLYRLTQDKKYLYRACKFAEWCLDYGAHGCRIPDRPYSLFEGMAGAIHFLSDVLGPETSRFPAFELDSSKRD
# UniProt Q8ND56: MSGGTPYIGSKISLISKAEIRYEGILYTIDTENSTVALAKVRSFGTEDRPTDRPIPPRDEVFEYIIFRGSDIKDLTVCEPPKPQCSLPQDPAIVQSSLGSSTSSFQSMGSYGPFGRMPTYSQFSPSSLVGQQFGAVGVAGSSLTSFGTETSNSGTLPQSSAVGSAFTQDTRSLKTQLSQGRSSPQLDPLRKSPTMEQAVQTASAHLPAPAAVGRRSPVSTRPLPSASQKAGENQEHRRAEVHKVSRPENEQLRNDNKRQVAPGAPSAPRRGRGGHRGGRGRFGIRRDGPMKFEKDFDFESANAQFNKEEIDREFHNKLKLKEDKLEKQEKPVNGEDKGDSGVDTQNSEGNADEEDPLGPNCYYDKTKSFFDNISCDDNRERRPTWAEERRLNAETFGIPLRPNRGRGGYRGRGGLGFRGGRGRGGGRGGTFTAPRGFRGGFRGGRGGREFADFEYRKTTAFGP
# UniProt Q8WWI1: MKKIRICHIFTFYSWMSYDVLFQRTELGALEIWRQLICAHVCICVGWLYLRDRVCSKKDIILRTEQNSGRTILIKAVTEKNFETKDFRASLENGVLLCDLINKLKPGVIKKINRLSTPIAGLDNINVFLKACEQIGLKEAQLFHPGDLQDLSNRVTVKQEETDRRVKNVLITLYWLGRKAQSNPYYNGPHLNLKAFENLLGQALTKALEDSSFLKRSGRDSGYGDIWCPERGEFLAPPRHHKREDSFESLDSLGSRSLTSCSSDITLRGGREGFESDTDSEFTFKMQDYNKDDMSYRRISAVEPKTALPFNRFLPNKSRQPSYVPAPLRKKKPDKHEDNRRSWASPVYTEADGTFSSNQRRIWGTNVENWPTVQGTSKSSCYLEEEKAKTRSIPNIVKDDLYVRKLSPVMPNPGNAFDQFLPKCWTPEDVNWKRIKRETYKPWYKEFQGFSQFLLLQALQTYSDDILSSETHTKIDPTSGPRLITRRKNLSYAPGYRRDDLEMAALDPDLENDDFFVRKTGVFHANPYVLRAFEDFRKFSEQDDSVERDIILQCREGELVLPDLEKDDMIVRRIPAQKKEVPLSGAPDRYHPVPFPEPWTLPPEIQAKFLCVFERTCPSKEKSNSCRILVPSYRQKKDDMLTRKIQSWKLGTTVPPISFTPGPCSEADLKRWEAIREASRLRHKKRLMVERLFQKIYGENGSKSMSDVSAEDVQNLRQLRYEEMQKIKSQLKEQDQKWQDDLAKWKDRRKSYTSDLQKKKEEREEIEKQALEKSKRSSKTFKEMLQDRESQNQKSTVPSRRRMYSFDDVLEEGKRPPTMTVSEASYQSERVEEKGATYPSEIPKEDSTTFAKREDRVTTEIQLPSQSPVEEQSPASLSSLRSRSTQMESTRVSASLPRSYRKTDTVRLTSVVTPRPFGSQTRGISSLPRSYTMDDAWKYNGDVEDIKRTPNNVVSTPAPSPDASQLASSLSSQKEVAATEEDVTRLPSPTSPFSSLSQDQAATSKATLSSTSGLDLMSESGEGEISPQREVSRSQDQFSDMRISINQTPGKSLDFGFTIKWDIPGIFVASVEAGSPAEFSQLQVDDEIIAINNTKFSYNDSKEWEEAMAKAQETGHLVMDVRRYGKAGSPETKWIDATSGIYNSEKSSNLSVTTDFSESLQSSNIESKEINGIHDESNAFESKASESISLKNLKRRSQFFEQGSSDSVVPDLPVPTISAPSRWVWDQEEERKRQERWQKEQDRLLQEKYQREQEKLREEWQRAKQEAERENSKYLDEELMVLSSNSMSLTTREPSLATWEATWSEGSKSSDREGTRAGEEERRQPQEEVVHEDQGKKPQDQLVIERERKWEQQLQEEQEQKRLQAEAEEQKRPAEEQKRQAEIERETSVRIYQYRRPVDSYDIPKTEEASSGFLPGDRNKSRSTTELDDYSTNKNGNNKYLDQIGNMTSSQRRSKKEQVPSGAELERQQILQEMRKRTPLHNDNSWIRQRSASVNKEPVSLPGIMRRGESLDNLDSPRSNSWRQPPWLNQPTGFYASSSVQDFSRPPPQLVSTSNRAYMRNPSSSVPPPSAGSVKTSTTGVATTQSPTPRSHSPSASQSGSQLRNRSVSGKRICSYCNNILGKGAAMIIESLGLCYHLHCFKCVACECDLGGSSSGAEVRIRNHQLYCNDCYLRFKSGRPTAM
# UniProt P43243: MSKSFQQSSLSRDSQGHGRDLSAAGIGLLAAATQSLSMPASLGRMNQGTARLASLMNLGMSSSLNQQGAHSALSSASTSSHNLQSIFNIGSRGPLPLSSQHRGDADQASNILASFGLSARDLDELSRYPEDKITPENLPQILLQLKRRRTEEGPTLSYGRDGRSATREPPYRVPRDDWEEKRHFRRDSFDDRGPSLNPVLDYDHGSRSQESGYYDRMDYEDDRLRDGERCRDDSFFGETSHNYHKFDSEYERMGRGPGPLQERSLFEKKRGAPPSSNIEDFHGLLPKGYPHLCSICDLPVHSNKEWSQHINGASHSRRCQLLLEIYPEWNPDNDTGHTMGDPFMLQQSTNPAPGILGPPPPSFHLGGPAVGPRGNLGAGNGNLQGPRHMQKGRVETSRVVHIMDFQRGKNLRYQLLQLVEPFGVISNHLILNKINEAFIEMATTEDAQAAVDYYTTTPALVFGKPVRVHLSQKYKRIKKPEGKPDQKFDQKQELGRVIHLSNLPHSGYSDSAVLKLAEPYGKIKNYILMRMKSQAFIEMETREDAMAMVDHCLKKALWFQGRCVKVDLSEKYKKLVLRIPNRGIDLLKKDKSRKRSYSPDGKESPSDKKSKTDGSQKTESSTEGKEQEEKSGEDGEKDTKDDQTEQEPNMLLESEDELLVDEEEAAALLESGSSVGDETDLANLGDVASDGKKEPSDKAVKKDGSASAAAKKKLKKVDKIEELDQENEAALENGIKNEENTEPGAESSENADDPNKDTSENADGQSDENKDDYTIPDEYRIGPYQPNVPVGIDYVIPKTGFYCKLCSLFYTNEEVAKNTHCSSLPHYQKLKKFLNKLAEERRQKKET
# Some of the results follow.
# Compound: COc1ccc(Cn2ccc3cc(C)c(C(=O)NO)cc32)cc1
# Assay: dose-dependent thermal stabilisation call (2D-TPP, DLPTP, 10% FDR) (binary (1 = stabilised)); higher = stabilised by the compound
# Details: system: HL-60 intact cells; concentration range 0.04-10 µM
# Description: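 2D thermal proteome profiling in intact HL-60 cells treated with BRD-3811 (0, 0.04, 0.29, 2, 10 uM) for 90 min at 37 C, then heated 3 min at one of 12 temperatures (42-63.9 C). Soluble protein was quantified by TMT10 MS. The value is the DLPTP call of the paper: dose-dependent thermal stabilisation over all temperatures at 10% FDR (F-test of a dose-response against a flat model); one experiment, one call per tested protein.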
row,Target,dose-dependent thermal stabilisation call
1,LDLR (UniProt P01130),inactive: 0
2,LOC100130633,inactive: 0
3,LBR (UniProt Q14739),inactive: 0
4,M6PR (UniProt P20645),inactive: 0
5,LMF1 (UniProt Q96S06),inactive: 0
6,MAPRE2 (UniProt Q15555),inactive: 0
7,MAT2A (UniProt P31153),inactive: 0
8,MCM4 (UniProt P33991),inactive: 0
9,MAP3K5 (UniProt Q99683),inactive: 0
10,LOC100132129,inactive: 0
11,LIMS1 (UniProt P48059),inactive: 0
12,LRRC20 (UniProt Q8TCA0),inactive: 0
13,LDHB (UniProt P07195),inactive: 0
14,LYRM2 (UniProt Q9NU23),inactive: 0
15,MCAT (UniProt Q8IVS2),inactive: 0
16,LOC284889,inactive: 0
17,LSS (UniProt P48449),inactive: 0
18,LIG3 (UniProt P49916),inactive: 0
19,LPP (UniProt Q93052),inactive: 0
20,MDC1 (UniProt Q14676),inactive: 0
21,KTI12 (UniProt Q96EK9),inactive: 0
22,LRBA (UniProt P50851),inactive: 0

row,Target,dose-dependent thermal stabilisation call
1,LSM4 (UniProt Q9Y4Z0),inactive: 0
2,LUZP1 (UniProt Q86V48),inactive: 0
3,LSM5 (UniProt Q9Y4Y9),inactive: 0
4,LGALS9 (UniProt O00182),inactive: 0
5,MAZ (UniProt P56270),inactive: 0
6,LRRC57 (UniProt Q8N9N7),inactive: 0
7,LMBRD1 (UniProt Q9NUN5),inactive: 0
8,LARS (UniProt Q9P2J5),inactive: 0
9,LRRC33 (UniProt Q86YC3),inactive: 0
10,MCM2 (UniProt P49736),inactive: 0
11,LAMP1 (UniProt P11279),inactive: 0
12,LASS2 (UniProt Q96G23),inactive: 0
13,MARCH5 (UniProt Q9NX47),inactive: 0
14,LETMD1 (UniProt Q6P1Q0),inactive: 0
15,LIN7A (UniProt O14910),inactive: 0
16,MAGED1 (UniProt Q9Y5V3),inactive: 0
17,MAK10 (UniProt Q5VZE5),inactive: 0
18,MAGED2 (UniProt Q9UNF1),inactive: 0
19,MDN1 (UniProt Q9NU22),inactive: 0
20,MARS (UniProt P56192),inactive: 0
21,LENG8 (UniProt Q96PV6),inactive: 0
22,LEPREL2 (UniProt Q8IVL6),inactive: 0

# Already shown: entries from further up.
row,Target,dose-dependent thermal stabilisation call
1,LDLR (UniProt P01130),inactive: 0
2,LOC100130633,inactive: 0
3,LBR (UniProt Q14739),inactive: 0
4,M6PR (UniProt P20645),inactive: 0
5,LMF1 (UniProt Q96S06),inactive: 0
6,MAPRE2 (UniProt Q15555),inactive: 0

# As entered above:
# Value of LRRC33 (UniProt Q86YC3) under dose-dependent thermal stabilisation call: inactive: 0
# Value of LETMD1 (UniProt Q6P1Q0) under dose-dependent thermal stabilisation call: inactive: 0

# Carrying on:

row,Target,dose-dependent thermal stabilisation call
1,MAPKSP1 (UniProt Q9UHA4),inactive: 0
2,LRIG2 (UniProt O94898),inactive: 0
3,MBNL1 (UniProt Q9NR56),inactive: 0
4,LMF2 (UniProt Q9BU23),inactive: 0
5,MBTPS1 (UniProt Q14703),inactive: 0
6,LONP1 (UniProt P36776),inactive: 0
7,MAP4K5 (UniProt Q9Y4K4),inactive: 0
8,LOC728944,inactive: 0
9,MAPK8 (UniProt P45983),inactive: 0
10,MAPKAP1 (UniProt Q9BPZ7),inactive: 0
11,LEMD2 (UniProt Q8NC56),inactive: 0
12,MCTS1 (UniProt Q9ULC4),inactive: 0
13,LRMP (UniProt Q12912),inactive: 0
14,LARP7 (UniProt Q4G0J3),inactive: 0
15,MAP3K7 (UniProt O43318),inactive: 0
16,LYSMD1 (UniProt Q96S90),inactive: 0
17,LOC442497,inactive: 0
18,LYAR (UniProt Q9NX58),inactive: 0
19,LUC7L2 (UniProt Q9Y383),inactive: 0
20,LEPRE1 (UniProt Q32P28),inactive: 0
21,MAP2K3 (UniProt P46734),inactive: 0
22,LOC389203,inactive: 0

row,Target,dose-dependent thermal stabilisation call
1,M11S1 (UniProt Q14444),inactive: 0
2,LANCL2 (UniProt Q9NS86),inactive: 0
3,MBD3 (UniProt O95983),inactive: 0
4,MAN2B2 (UniProt Q9Y2E5),inactive: 0
5,LATS1 (UniProt O95835),inactive: 0
6,LANCL1 (UniProt O43813),inactive: 0
7,LIMD1 (UniProt Q9UGP4),inactive: 0
8,LACTB (UniProt P83111),inactive: 0
9,MCFD2 (UniProt Q8NI22),inactive: 0
10,MAN2C1 (UniProt Q9NTJ4),inactive: 0
11,MANEA (UniProt Q5SRI9),inactive: 0
12,MAP3K1 (UniProt Q13233),inactive: 0
13,MAP7D1 (UniProt Q3KQU3),inactive: 0
14,MARK3 (UniProt P27448),inactive: 0
15,LIMK2 (UniProt P53671),inactive: 0
16,MAP3K7IP1 (UniProt Q15750),inactive: 0
17,LHPP (UniProt Q9H008),inactive: 0
18,MCM6 (UniProt Q14566),inactive: 0
19,LMTK2 (UniProt Q8IWU2),inactive: 0
20,LRCH3 (UniProt Q96II8),inactive: 0
21,LACE1 (UniProt Q8WV93),inactive: 0
22,LARP4 (UniProt Q71RC2),inactive: 0

row,Target,dose-dependent thermal stabilisation call
1,LSM14A (UniProt Q8ND56),inactive: 0
2,MCART1 (UniProt Q9H1U9),inactive: 0
3,LRP8 (UniProt Q14114),inactive: 0
4,MAP1LC3B2 (UniProt A6NCE7),inactive: 0
5,MCM7 (UniProt P33993),inactive: 0
6,MAP2K2 (UniProt P36507),inactive: 0
7,LIMD2 (UniProt Q9BT23),inactive: 0
8,LBA1 (UniProt O15050),inactive: 0
9,LPCAT4 (UniProt Q643R3),inactive: 0
10,MBOAT1 (UniProt Q6ZNC8),inactive: 0
11,KTN1 (UniProt Q86UP2),inactive: 0
12,LSM1 (UniProt O15116),inactive: 0
13,LSM2 (UniProt Q9Y333),inactive: 0
14,LRPAP1 (UniProt P30533),inactive: 0
15,MAGEB2 (UniProt O15479),inactive: 0
16,LSM3 (UniProt P62310),inactive: 0
17,LCLAT1 (UniProt Q6UWP7),inactive: 0
18,LYRM4 (UniProt Q9HD34),inactive: 0
19,LMO7 (UniProt Q8WWI1),inactive: 0
20,MATR3 (UniProt P43243),inactive: 0
